# Test results as given in article PMC3631187, “Structural and Functional Insights into Saccharomyces cerevisiae Riboflavin Biosynthesis Reductase RIB7” (PLoS ONE, 2013).
# No constants are given. Whether binding was seen depends on the method and setting. Some results given as binding are weak or reduced against the parent protein; the word gives no strength. Sequences can lack the tags named with a protein.
# Target: Saccharomyces cerevisiae RIB7 (Saccharomyces cerevisiae) (UniProt P33312)
# Assay: crystal structure; ligand-free ScRIB7 at 2.10 Å and NADPH-soaked crystal at 2.35 Å, space group P2(1)2(1)2(1), two molecules in the asymmetric unit; dimer interface chosen with PISA; both purified
binder,measurement,value
"Saccharomyces cerevisiae RIB7 (enzyme, RIB7, riboflavin biosynthesis reductase of Saccharomyces cerevisiae; RIB7 gene amplified from genomic DNA and cloned BamHI/XhoI into pGEX6p-1; Wild type; A seleno-methionine derivative was used only for phasing; Residues left by the PreScission site after cleavage are not described; also called ScRIB7; riboflavin biosynthesis reductase RIB7; source: E. coli BL21 (DE3), purified …) MSLTPLCEDLPQFLQNYLPNAGQTENTIVPFVTLTYAQSLDARVSRGPGVRTTISHPETKTMTHYLRHHHDGILVGSGTVLADNPGLNCKWGPDPAANSPRPIIIDTKQKWRFDGSKMQELFIKRQGKPPIVVVTSEPIIKEQHVDYAICPINDTTKLVDWKKLFEILKEEFNIRSVMVEGGANVINQLLLRSDIVNSLIITIGSTFLGSSGTEVSPPQTVNLKDMSWWKGITDVVLCARLADD",binding,binds
